Structures can show the parent of a compound that is named as a salt. The list shows a part of the results. The calls rarely recur for the same compound in another form.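 Kinases, fused to nanoluciferase, were expressed in K562 cells; luminescence was measured every 4 h from 2 to 18 h as percent of control (DMSO = 100%, positive control = 0%). A time point is decreased if signal falls significantly (2 sigma). Hits were called by the authors by a rule that is not shown; the count of time points alone does not decide it.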
Columns and labels:
Test in all cases: kinase-Nluc reporter destabilization hit call (1 = scored as downregulated) (binary); higher = compound decreases kinase abundance
Settings in all cases: K562; 2-18 h
BRAF_V600E = system: BRAF_V600E
BTK = BTK (UniProt Q06187)
CAMK2A = CAMK2A (UniProt Q9UQM7)
CAMK2G = CAMK2G (UniProt Q13555)
CDK10 = CDK10 (UniProt Q15131)
CDK2 = CDK2 (UniProt P24941)
CDK3 = CDK3 (UniProt Q00526)
CDK4 = CDK4 (UniProt P11802)
CDK5 = CDK5 (UniProt Q00535)
CDK6 = CDK6 (UniProt Q00534)

Chains of the proteins cited; added tags and fusions are not shown. Lines headed by an entry give the natural chain unless they say otherwise; changes in a name come on top.
UniProt Q06187: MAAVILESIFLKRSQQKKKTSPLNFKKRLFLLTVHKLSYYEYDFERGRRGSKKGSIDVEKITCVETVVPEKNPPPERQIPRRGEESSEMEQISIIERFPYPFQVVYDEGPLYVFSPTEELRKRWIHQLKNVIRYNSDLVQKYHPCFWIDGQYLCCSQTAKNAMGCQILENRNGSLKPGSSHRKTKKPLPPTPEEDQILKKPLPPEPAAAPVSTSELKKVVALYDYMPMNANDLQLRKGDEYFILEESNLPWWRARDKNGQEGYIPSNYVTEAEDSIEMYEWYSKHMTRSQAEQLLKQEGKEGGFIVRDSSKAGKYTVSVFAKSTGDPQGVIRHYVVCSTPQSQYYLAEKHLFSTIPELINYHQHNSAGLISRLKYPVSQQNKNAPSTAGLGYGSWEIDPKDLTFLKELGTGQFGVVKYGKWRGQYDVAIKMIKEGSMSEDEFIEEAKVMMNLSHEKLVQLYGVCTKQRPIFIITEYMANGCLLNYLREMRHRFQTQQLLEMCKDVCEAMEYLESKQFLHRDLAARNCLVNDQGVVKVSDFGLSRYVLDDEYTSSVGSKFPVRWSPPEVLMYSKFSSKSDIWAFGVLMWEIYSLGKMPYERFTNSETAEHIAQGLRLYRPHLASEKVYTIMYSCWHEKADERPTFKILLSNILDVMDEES
UniProt Q9UQM7, whole entry: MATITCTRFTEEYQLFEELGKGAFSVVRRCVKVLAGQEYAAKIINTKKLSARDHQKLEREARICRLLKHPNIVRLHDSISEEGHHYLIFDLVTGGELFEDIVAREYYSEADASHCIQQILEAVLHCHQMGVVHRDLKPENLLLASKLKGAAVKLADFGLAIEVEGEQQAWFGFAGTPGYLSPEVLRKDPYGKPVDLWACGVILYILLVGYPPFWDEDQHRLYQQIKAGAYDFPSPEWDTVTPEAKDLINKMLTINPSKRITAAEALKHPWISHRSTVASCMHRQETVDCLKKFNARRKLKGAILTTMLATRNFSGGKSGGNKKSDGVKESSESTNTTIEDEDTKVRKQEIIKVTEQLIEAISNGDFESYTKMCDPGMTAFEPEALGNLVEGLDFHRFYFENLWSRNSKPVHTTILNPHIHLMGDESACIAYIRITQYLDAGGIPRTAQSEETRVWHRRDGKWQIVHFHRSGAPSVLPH
UniProt Q13555: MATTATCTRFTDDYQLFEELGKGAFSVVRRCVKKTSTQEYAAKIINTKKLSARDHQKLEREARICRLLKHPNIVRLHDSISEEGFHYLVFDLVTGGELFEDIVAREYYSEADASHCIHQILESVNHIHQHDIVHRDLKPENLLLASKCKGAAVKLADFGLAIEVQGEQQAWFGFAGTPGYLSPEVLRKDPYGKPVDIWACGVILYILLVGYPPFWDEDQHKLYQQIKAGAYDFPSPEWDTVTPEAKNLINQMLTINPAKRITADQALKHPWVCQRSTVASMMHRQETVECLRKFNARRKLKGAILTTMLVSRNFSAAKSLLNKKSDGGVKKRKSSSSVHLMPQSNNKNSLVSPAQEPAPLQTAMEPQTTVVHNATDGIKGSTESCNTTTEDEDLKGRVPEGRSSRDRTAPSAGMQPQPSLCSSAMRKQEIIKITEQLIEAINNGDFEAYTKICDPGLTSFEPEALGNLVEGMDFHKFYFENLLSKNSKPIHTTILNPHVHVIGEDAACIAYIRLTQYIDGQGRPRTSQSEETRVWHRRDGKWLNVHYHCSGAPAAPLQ
UniProt Q15131: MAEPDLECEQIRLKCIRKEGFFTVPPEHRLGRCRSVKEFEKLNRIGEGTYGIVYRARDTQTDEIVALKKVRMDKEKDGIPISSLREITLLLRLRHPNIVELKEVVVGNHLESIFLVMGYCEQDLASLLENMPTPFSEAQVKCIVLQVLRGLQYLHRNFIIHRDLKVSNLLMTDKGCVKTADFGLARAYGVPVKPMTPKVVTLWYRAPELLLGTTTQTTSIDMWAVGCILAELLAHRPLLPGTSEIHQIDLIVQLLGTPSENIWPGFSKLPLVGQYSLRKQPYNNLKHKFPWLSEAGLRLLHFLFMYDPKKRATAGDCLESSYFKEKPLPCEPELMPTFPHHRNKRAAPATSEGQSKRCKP
UniProt Q00526: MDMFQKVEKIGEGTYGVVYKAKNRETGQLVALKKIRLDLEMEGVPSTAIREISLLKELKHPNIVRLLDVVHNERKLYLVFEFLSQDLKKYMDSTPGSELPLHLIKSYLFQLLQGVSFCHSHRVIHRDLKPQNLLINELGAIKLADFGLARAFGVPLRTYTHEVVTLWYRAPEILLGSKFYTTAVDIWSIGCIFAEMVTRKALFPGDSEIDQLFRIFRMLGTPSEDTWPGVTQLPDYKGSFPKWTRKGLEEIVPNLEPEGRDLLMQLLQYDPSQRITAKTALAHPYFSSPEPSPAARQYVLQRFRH
UniProt P11802: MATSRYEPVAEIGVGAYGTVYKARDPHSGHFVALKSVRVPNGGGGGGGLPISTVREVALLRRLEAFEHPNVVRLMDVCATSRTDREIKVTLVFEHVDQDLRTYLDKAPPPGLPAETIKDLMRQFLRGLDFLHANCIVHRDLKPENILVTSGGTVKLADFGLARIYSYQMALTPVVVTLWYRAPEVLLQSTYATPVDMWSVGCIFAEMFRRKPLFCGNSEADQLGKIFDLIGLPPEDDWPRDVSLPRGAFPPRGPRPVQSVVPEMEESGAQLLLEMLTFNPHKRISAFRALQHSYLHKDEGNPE
UniProt Q00535, whole entry, looked up: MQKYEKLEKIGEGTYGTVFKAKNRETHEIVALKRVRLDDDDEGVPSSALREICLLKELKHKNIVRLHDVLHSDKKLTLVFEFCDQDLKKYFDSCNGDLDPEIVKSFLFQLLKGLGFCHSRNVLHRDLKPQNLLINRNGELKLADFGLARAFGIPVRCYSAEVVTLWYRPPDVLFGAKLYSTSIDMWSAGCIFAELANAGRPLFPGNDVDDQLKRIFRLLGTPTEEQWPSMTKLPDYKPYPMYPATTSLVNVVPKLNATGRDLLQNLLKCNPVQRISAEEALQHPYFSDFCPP
UniProt Q00534, whole entry: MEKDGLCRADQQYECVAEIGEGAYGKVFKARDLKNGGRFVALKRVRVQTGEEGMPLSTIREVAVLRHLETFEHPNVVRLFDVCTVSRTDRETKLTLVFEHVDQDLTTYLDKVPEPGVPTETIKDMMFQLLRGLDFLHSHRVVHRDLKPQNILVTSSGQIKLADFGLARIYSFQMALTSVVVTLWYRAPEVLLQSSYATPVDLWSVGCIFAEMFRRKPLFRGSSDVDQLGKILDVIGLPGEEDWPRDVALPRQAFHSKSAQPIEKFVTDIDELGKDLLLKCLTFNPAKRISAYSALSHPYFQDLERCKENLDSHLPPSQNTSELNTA

Measured: kinase-Nluc reporter destabilization hit call

CN(c1ccc(C(F)(F)F)cc1)S(=O)(=O)c1ccc(C(=O)Nc2nc(-c3ccccn3)cs2)cc1 (2.5 µM)
inactive: BRAF_V600E 0 | BTK 0 | CAMK2A 0 | CAMK2G 0 | CDK10 = 0 | CDK2 = 0 | CDK3 = 0 | CDK4 = 0 | CDK5 = 0 | CDK6 = 0

CN1CCN(c2ccc(NC(=O)c3ccc(C#N)o3)c(N3CCCCC3)c2)CC1 (10 µM)
inactive: BRAF_V600E 0 | BTK 0 | CAMK2A 0 | CAMK2G 0 | CDK10 = 0 | CDK2 = 0 | CDK3 = 0 | CDK4 = 0 | CDK5 = 0 | CDK6 = 0

COc1ccc(S(=O)(=O)N(CCO)c2ccccc2CN(C)CC=Cc2ccc(Cl)cc2)cc1 (2.5 µM)
inactive: BRAF_V600E 0 | BTK 0 | CAMK2A 0 | CAMK2G 0 | CDK10 = 0 | CDK2 = 0 | CDK3 = 0 | CDK4 = 0 | CDK5 = 0 | CDK6 = 0

CC(C)(C)c1ccc(C(=O)Nc2cn3cc(-n4ccnc4)ccc3n2)cc1 (10 µM)
inactive: BRAF_V600E 0 | BTK 0 | CAMK2A 0 | CAMK2G 0 | CDK10 = 0 | CDK2 = 0 | CDK3 = 0 | CDK4 = 0 | CDK5 = 0 | CDK6 = 0

C[C@H]1CNC(=O)c2cnn3ccc(nc23)N[C@H](C)c2cc(F)ccc2O1 [Repotrectinib] (2.5 µM)
inactive: BRAF_V600E 0 | BTK 0 | CAMK2A 0 | CAMK2G 0 | CDK10 = 0 | CDK2 = 0 | CDK3 = 0 | CDK4 = 0 | CDK5 = 0 | CDK6 = 0

Oc1ccc2ccccc2c1SSc1c(O)ccc2ccccc12 (10 µM)
inactive: BRAF_V600E 0 | BTK 0 | CAMK2A 0 | CAMK2G 0 | CDK10 = 0 | CDK2 = 0 | CDK3 = 0 | CDK4 = 0 | CDK5 = 0 | CDK6 = 0

O=C1NCCSc2c1sc1ccc(O)cc21 (2.5 µM)
inactive: BRAF_V600E 0 | BTK 0 | CAMK2A 0 | CAMK2G 0 | CDK10 = 0 | CDK2 = 0 | CDK3 = 0 | CDK4 = 0 | CDK5 = 0 | CDK6 = 0

Cc1cc([N+](=O)[O-])c(NS(=O)(=O)c2cccc(C(=O)O)c2)cc1-c1cccnc1 [Alofanib] (10 µM)
inactive: BRAF_V600E 0 | BTK 0 | CAMK2A 0 | CAMK2G 0 | CDK10 = 0 | CDK2 = 0 | CDK3 = 0 | CDK4 = 0 | CDK5 = 0 | CDK6 = 0

CC(C)n1cnnc1-c1cccc(NC(=O)c2cc3ccc(F)cc3[nH]2)n1 (2.5 µM)
inactive: BRAF_V600E 0 | BTK 0 | CAMK2A 0 | CAMK2G 0 | CDK10 = 0 | CDK2 = 0 | CDK3 = 0 | CDK4 = 0 | CDK5 = 0 | CDK6 = 0

O=C(N/N=C/c1ccc([N+](=O)[O-])o1)c1ccc(O)cc1 [Nifuroxazide] (10 µM)
inactive: BRAF_V600E 0 | BTK 0 | CAMK2A 0 | CAMK2G 0 | CDK10 = 0 | CDK2 = 0 | CDK3 = 0 | CDK4 = 0 | CDK5 = 0 | CDK6 = 0

CN(C)C(=O)c1cc2cnc(Nc3ccc(NC(=O)C4(C(=O)Nc5ccc(F)cc5)CC4)cc3)nc2n1C1CCCC1 (2 µM)
inactive: BRAF_V600E 0 | BTK 0 | CAMK2A 0 | CAMK2G 0 | CDK10 = 0 | CDK2 = 0 | CDK3 = 0 | CDK4 = 0 | CDK5 = 0 | CDK6 = 0

Cn1c(=O)c(Oc2ccc(F)cc2F)cc2cnc(NC(CCO)CCO)nc21 [Pamapimod] (10 µM)
inactive: BRAF_V600E 0 | BTK 0 | CAMK2A 0 | CAMK2G 0 | CDK10 = 0 | CDK2 = 0 | CDK3 = 0 | CDK4 = 0 | CDK5 = 0 | CDK6 = 0

C[C@@H](Nc1cc(F)cc(F)c1)c1cc(C(=O)N(C)C)cc2c(=O)cc(N3CCOCC3)oc12 (10 µM)
inactive: BRAF_V600E 0 | BTK 0 | CAMK2A 0 | CAMK2G 0 | CDK10 = 0 | CDK2 = 0 | CDK3 = 0 | CDK4 = 0 | CDK5 = 0 | CDK6 = 0

COc1cc(-c2cnc(N)c(-c3ccc(NC(=O)c4cn(CC5CCOCC5)cc(-c5ccc(C)cn5)c4=O)cc3F)c2)ccc1OC[C@H]1COCCO1 [DS-1205b (free base)] (10 µM)
inactive: BRAF_V600E 0 | BTK 0 | CAMK2A 0 | CAMK2G 0 | CDK10 = 0 | CDK2 = 0 | CDK3 = 0 | CDK4 = 0 | CDK5 = 0 | CDK6 = 0

C[C@H](CC[C@@H](O)C(C)(C)O)[C@H]1CC[C@@]2(C)[C@@H]3CC=C4[C@@H](CC[C@H](O)C4(C)C)[C@]3(C)[C@H](O)C[C@]12C [Mogrol] (10 µM)
inactive: BRAF_V600E 0 | BTK 0 | CAMK2A 0 | CAMK2G 0 | CDK10 = 0 | CDK2 = 0 | CDK3 = 0 | CDK4 = 0 | CDK5 = 0 | CDK6 = 0

Nc1nc2c(ncn2COCCO)c(=O)[nH]1 [Acyclovir] (10 µM)
inactive: BRAF_V600E 0 | BTK 0 | CAMK2A 0 | CAMK2G 0 | CDK10 = 0 | CDK2 = 0 | CDK3 = 0 | CDK4 = 0 | CDK5 = 0 | CDK6 = 0

COc1ccc(COc2cc3oc(=O)c4cc(C(C)O)ccc4c3cc2OC)cc1 (stereo not given) [Palomid 529] (2.5 µM)
inactive: BRAF_V600E 0 | BTK 0 | CAMK2A 0 | CAMK2G 0 | CDK10 = 0 | CDK2 = 0 | CDK3 = 0 | CDK4 = 0 | CDK5 = 0 | CDK6 = 0

C[C@]1(O)C[C@@](N)(c2ccc(-c3nc4n(c3-c3ccccc3)COc3ccncc3-4)cc2)C1 [TAS-117 (hydrochloride)] (10 µM)
inactive: BRAF_V600E 0 | BTK 0 | CAMK2A 0 | CAMK2G 0 | CDK10 = 0 | CDK2 = 0 | CDK3 = 0 | CDK4 = 0 | CDK5 = 0 | CDK6 = 0

C=CC(=O)Nc1cccc(Oc2nc(Nc3ccc(N4CCN(C)CC4)cc3)ncc2Cl)c1 (2.5 µM)
inactive: BRAF_V600E 0 | BTK 0 | CAMK2A 0 | CAMK2G 0 | CDK10 = 0 | CDK2 = 0 | CDK3 = 0 | CDK4 = 0 | CDK5 = 0 | CDK6 = 0

COc1cccc2cc(-c3nc([C@H]4CC[C@H](C(=O)O)CC4)n4ncnc(N)c34)[nH]c12 (2.5 µM)
inactive: BRAF_V600E 0 | BTK 0 | CAMK2A 0 | CAMK2G 0 | CDK10 = 0 | CDK2 = 0 | CDK3 = 0 | CDK4 = 0 | CDK5 = 0 | CDK6 = 0

NC(=O)c1cccc2c(N[C@H](CN3CCC3)c3ccc(Cl)c(C(F)(F)F)c3)ncnc12 (10 µM)
inactive: BRAF_V600E 0 | BTK 0 | CAMK2A 0 | CAMK2G 0 | CDK10 = 0 | CDK2 = 0 | CDK3 = 0 | CDK4 = 0 | CDK5 = 0 | CDK6 = 0

C[C@@H]1CN(CC(=O)Nc2ccc3c(c2)Cc2cccc(-c4cc(=O)cc(N5CCOCC5)o4)c2S3)C[C@H](C)O1 (2.5 µM)
inactive: BRAF_V600E 0 | BTK 0 | CAMK2A 0 | CAMK2G 0 | CDK10 = 0 | CDK2 = 0 | CDK3 = 0 | CDK4 = 0 | CDK5 = 0 | CDK6 = 0

CC(=O)Nc1nc(C)c(-c2ccc(Cl)c(S(=O)(=O)NCCO)c2)s1 (10 µM)
inactive: BRAF_V600E 0 | BTK 0 | CAMK2A 0 | CAMK2G 0 | CDK10 = 0 | CDK2 = 0 | CDK3 = 0 | CDK4 = 0 | CDK5 = 0 | CDK6 = 0

Not a retest: two of the compounds above.
COc1cccc2cc(-c3nc([C@H]4CC[C@H](C(=O)O)CC4)n4ncnc(N)c34)[nH]c12 (2.5 µM)
inactive: BRAF_V600E 0 | BTK 0 | CAMK2A 0 | CAMK2G 0 | CDK10 = 0 | CDK2 = 0 | CDK3 = 0 | CDK4 = 0 | CDK5 = 0 | CDK6 = 0

NC(=O)c1cccc2c(N[C@H](CN3CCC3)c3ccc(Cl)c(C(F)(F)F)c3)ncnc12 (10 µM)
inactive: BRAF_V600E 0 | BTK 0 | CAMK2A 0 | CAMK2G 0 | CDK10 = 0 | CDK2 = 0 | CDK3 = 0 | CDK4 = 0 | CDK5 = 0 | CDK6 = 0

Additional compounds follow.

O=C(Nc1ncc(SCCN2CCCC2)s1)[C@]1(c2ccc(S(=O)(=O)C3CC3)cc2)C[C@H]1C1CCCCC1 [Globalagliatin] (2.5 µM)
inactive: BRAF_V600E 0 | BTK 0 | CAMK2A 0 | CAMK2G 0 | CDK10 = 0 | CDK2 = 0 | CDK3 = 0 | CDK4 = 0 | CDK5 = 0 | CDK6 = 0

Cc1cc(/C=C2\CC/C(=C\c3cc(C)c(O)c(C)c3)C2=O)cc(C)c1O [Pentagamavunon-1] (2.5 µM)
inactive: BRAF_V600E 0 | BTK 0 | CAMK2A 0 | CAMK2G 0 | CDK10 = 0 | CDK2 = 0 | CDK3 = 0 | CDK4 = 0 | CDK5 = 0 | CDK6 = 0

CCc1ccc(NC(=O)Nc2ccccc2)cc1 (10 µM)
inactive: BRAF_V600E 0 | BTK 0 | CAMK2A 0 | CAMK2G 0 | CDK10 = 0 | CDK2 = 0 | CDK3 = 0 | CDK4 = 0 | CDK5 = 0 | CDK6 = 0

O=C(NCc1cccc(O)c1)c1cc2cc(F)ccc2[nH]1 (10 µM)
inactive: BRAF_V600E 0 | BTK 0 | CAMK2A 0 | CAMK2G 0 | CDK10 = 0 | CDK2 = 0 | CDK3 = 0 | CDK4 = 0 | CDK5 = 0 | CDK6 = 0

Source: the supplement of paper PMC12823440, “Inhibitors supercharge kinase turnover through native proteolytic circuits” (Nature, 2025)
